Experimental data as given in paper PMC12051542, “Identification of the phosphatase essential for riboflavin biosynthesis in Aquifex aeolicus” (The Journal of Biological Chemistry, 2025).
Results are given in words; binding and its absence hold for the method and conditions named. Some entries that bind do so weakly or less than the wild type.

Biological target: putative phosphatase 11 (PP11), annotated as a myo-inositol-1(or 4)-monophosphatase (IMP), Aquifex aeolicus (Aquifex aeolicus) (UniProt O67791)
Experiment: crystal structure; hanging drop, 75 mM Hepes pH 7.5, 70% MPD, room temperature; P21, 1.75 Å, molecular replacement with 2PCR; both purified

B1: putative phosphatase 11 (PP11), annotated as a myo-inositol-1(or 4)-monophosphatase (IMP), Aquifex aeolicus (enzyme)
chain: MENLKKYLEVAKIAALAGGQVLKENFGKVKKENIEEKGEKDFVSYVDKTSEERIKEVILKFFPDHEVVGEEMGAEGSGSEYRWFIDPLDGTKNYINGFPIFAVSVGLVKGEEPIVGAVYLPYFDKLYWGAKGLGAYVNGKRIKVKDNESLKHAGVVYGFPSRSRRDISIYLNIFKDVFYEVGSMRRPGAAAVDLCMVAEGIFDGMMEFEMKPWDITAGLVILKEAGGVYTLVGEPFGVSDIIAGNKALHDFILQVAKKYMEVAV
notes: Aquifex aeolicus putative phosphatase 11, annotated as myo-inositol-1(or 4)-monophosphatase; codon optimised, in pET20b with a stop codon before the C-terminal histidine tag so that the protein is expressed in the native form; Untagged; Two magnesium ions and a phosphate in the active site of the structure; source: E. coli BL21 (DE3), purified (heat 70 °C, gel filtration)
- binding: binds
